Values of other authors in patent US20080317857A1, “V-Atpase Inhibitors of Use in the Treatment of Septic Shock” (Brane Discovery S.r.l., priority 2005, published 2008).
Some results were stated once for a whole list of compounds, not compound by compound. At least one structure is not confirmed: it was looked up by name or label, or the drawing left a doubt.

Test system: V-ATPase
Conditions: cited from earlier work

For `C/C=C/[C@H]1O[C@@](O)([C@@H](C)[C@H](O)[C@H](C)[C@H]2OC(=O)/C(OC)=C/C(C)=C/[C@@H](C)[C@@H](O)[C@@H](CC)[C@@H](O)[C@H](C)C/C(C)=C/C=C/[C@@H]2OC)C[C@@H](O[C@H]2C[C@@H](O)[C@H](OC(N)=O)[C@@H](C)O2)[C@@H]1C` [Concanamycin A1, Concanamycin A], which “concentrations generally active in inhibiting V-ATPase” value is on record?
Its value is 0.5 to 10 nM.
